{"source": "PubChem BioAssay AID504804 (Drosophila RNAi Screening Center, 2011)", "screen": "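Fly genes whose loss lessens doxorubicin-driven cell death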 (primary screen)", "cells": "Drosophila Kc cells", "reagents": "long dsRNA against Drosophila genes, 0.5 µg dsRNA per well", "timing": "96 h (48 h knock-down, then 48 h drug)", "treatment": "doxorubicin 5 µg/ml for 48 h, added 48 h after dsRNA", "read-out": "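Viability measured as cellular ATP by luminescence after 48 h knock-down then 48 h doxorubicin at 5 µg/ml; unnormalised plate counts for each replicate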", "direction": "raw ATP luminescence: higher = more viable cells, protection from doxorubicin", "rule for the call": "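z-score of 2 or more over plate mean in both duplicates, retained only when retests and separate dsRNAs confirm the protection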", "note": "In all, the deposit lists about 19,000 reagents; below is a random part of those with a known target gene and a result. In the full data, 47 (0.25%) are marked active. 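Signals are raw, not normalised; exact z-scores behind calls not deposited; actives needed confirmation, so some wells reaching 2 SD are inactive.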 Unmarked entries are inactive. The numbers tell different reagents against one gene apart."}
The first 3 entries as a preview:
{"target gene": "Pex11c (Peroxin 11c)", "reagent": 1, "raw ATP luminescence, replicate 1": 80150, "raw ATP luminescence, replicate 2": 67820}
{"target gene": "CG14069", "reagent": 1, "raw ATP luminescence, replicate 1": 61117, "raw ATP luminescence, replicate 2": 84433}
{"target gene": "Rab8", "reagent": 1, "raw ATP luminescence, replicate 1": 21747, "raw ATP luminescence, replicate 2": 20557}

The listing, from the start:
{"target gene": "Pex11c (Peroxin 11c)", "reagent": 1, "raw ATP luminescence, replicate 1": 80150, "raw ATP luminescence, replicate 2": 67820}
{"target gene": "CG14069", "reagent": 1, "raw ATP luminescence, replicate 1": 61117, "raw ATP luminescence, replicate 2": 84433}
{"target gene": "Rab8", "reagent": 1, "raw ATP luminescence, replicate 1": 21747, "raw ATP luminescence, replicate 2": 20557}
{"target gene": "vers (versatile)", "reagent": 1, "raw ATP luminescence, replicate 1": 29230, "raw ATP luminescence, replicate 2": 32860}
{"target gene": "MAN1", "reagent": 1, "raw ATP luminescence, replicate 1": 61357, "raw ATP luminescence, replicate 2": 66420}
{"target gene": "CG31871", "reagent": 1, "raw ATP luminescence, replicate 1": 43063, "raw ATP luminescence, replicate 2": 63047}
{"target gene": "CG31871", "reagent": 2, "raw ATP luminescence, replicate 1": 42507, "raw ATP luminescence, replicate 2": 67673}
{"target gene": "CG18528", "reagent": 1, "raw ATP luminescence, replicate 1": 49900, "raw ATP luminescence, replicate 2": 48680}
{"target gene": "CG15332", "reagent": 1, "raw ATP luminescence, replicate 1": 26980, "raw ATP luminescence, replicate 2": 28660}
{"target gene": "CG14684", "reagent": 1, "raw ATP luminescence, replicate 1": 63007, "raw ATP luminescence, replicate 2": 57463}
{"target gene": "CG7685", "reagent": 1, "raw ATP luminescence, replicate 1": 64530, "raw ATP luminescence, replicate 2": 70670}
{"target gene": "CG7025", "reagent": 1, "raw ATP luminescence, replicate 1": 22750, "raw ATP luminescence, replicate 2": 19563}
{"target gene": "Prosbeta2R2 (Proteasome beta2 subunit-related 2)", "reagent": 1, "raw ATP luminescence, replicate 1": 63657, "raw ATP luminescence, replicate 2": 58187}
{"target gene": "CG15638", "reagent": 1, "raw ATP luminescence, replicate 1": 69640, "raw ATP luminescence, replicate 2": 62330}
{"target gene": "dnt (doughnut on 2)", "reagent": 1, "raw ATP luminescence, replicate 1": 1.02e5, "raw ATP luminescence, replicate 2": 84953}
{"target gene": "key (kenny)", "reagent": 1, "raw ATP luminescence, replicate 1": 73443, "raw ATP luminescence, replicate 2": 43613}
{"target gene": "CG5863", "reagent": 1, "raw ATP luminescence, replicate 1": 99910, "raw ATP luminescence, replicate 2": 70550}
{"target gene": "CG3492", "reagent": 1, "raw ATP luminescence, replicate 1": 67697, "raw ATP luminescence, replicate 2": 50140}
{"target gene": "CG5790", "reagent": 1, "raw ATP luminescence, replicate 1": 1.06e5, "raw ATP luminescence, replicate 2": 81317}
{"target gene": "NijB (Ninjurin B)", "reagent": 1, "raw ATP luminescence, replicate 1": 1.67e5, "raw ATP luminescence, replicate 2": 2.06e5}
{"target gene": "fal (falten)", "reagent": 1, "raw ATP luminescence, replicate 1": 33597, "raw ATP luminescence, replicate 2": 26837}
{"target gene": "AstC-R1 (Allatostatin C receptor 1)", "reagent": 1, "raw ATP luminescence, replicate 1": 51720, "raw ATP luminescence, replicate 2": 50190}
{"target gene": "glob1 (globin 1)", "reagent": 1, "raw ATP luminescence, replicate 1": 44763, "raw ATP luminescence, replicate 2": 65137}
{"target gene": "hdly (hadley)", "reagent": 1, "raw ATP luminescence, replicate 1": 46120, "raw ATP luminescence, replicate 2": 68070}
{"target gene": "CG17974", "reagent": 1, "raw ATP luminescence, replicate 1": 53080, "raw ATP luminescence, replicate 2": 58960}
{"target gene": "CG6900 (retired record)", "reagent": 1, "raw ATP luminescence, replicate 1": 3.51e5, "raw ATP luminescence, replicate 2": 3.10e5}
{"target gene": "Tsp26A (Tetraspanin 26A)", "reagent": 1, "raw ATP luminescence, replicate 1": 28590, "raw ATP luminescence, replicate 2": 32797}
{"target gene": "CG13385", "reagent": 1, "raw ATP luminescence, replicate 1": 39023, "raw ATP luminescence, replicate 2": 81497}
